In PubChem BioAssay AID2288 (National Center for Advancing Translational Sciences (NCATS), 2010) one finds activity change, positive = activation data, which are given here for three compounds.

The entries are a selection whose mix differs from that of the whole data set. The source made the active and inactive calls. Calls follow the shape of the dose curve; as a rule, active = well fitted curve in the direction sought with a large enough effect; inconclusive = small, poorly fitted or top-dose-only effect, or another doubt; inactive = no such curve, though single readings can be large or run the other way.

The nature of the assay: qHTS Assay for Modulators of miRNAs and/orActivators of miR-21.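 Also: % of control where 0% means no effect; miR-21 action dims this reporter so a rising signal means less miR-21 action.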 The following applies: HeLa miR-21 FLuc reporter, luciferase, 48 h; at 38.3 µM (top of the series). The source says:
MLSCN Grant: 1 R21 NS059478-01 Assay Provider: Qihong Huang, The Wistar Institute NCGC Assay Overview: MicroRNAs (miRNAs) are endogenously encoded small (~20-25 nucleotides), nonprotein-coding RNAs that are involved in post-transcriptional repression of target messenger RNAs (mRNAs) (Le and Hannon, 2004). Estimated to be involved in the regulation of 30% of all protein-coding mRNAs (Filipowicz et al., 2008), miRNAs play a significant role in many biological processes including cellular differentiation and tissue development (Ghildiyal and Zamore, 2009).
NCGC Assay Protocol Summary: Reagents: HeLa cells stably expressing firefly luciferase (FLuc) under the control of a CMV promoter (upstream) and a miR-21 binding sequence directly downstream of the gene. These cells endogenously express miR-21. Control compounds used were compound C3 (provided by collaborator), N6-phenyladenosine (MP Biomedicals, 0215379625), and DMSO. Assay Summary: 6uL of HeLa miR-21-FLuc cells in assay buffer (DMEM, Invitrogen #21063-029; 10% FBS, HyClone #SH30071.03) were dispensed at 2000cells/well (3.3 x 10^5 cells/mL) into Greiner solid-white TC-treated 1536-well plates using a Multidrop Combi (Thermo Fisher Scientific). Plates were incubated for one hour at 37 degree Celsius, 95% humidity, 5% CO2. These assay plates were then treated with 23nL of compound or DMSO using a Kalypsys pin tool, which allows for delivery of a 24-point titration of each compound to the assay plate, with a final compound concentration ranging from approximately 40uM to 5pM. Assay plates were then incubated for 48 hours. After incubation, plates were allowed to come to RT for one hour prior to delivery of 3uL of 3X luciferase detection reagent. After a 15 minute incubation to allow for cell lysis, luciferase activity was measured using a ViewLux CCD imager (PerkinElmer), with an average exposure time of 2-12 seconds. Keywords: NIH Roadmap, MLPCN, MLSMR, qHTS, miR-21, microRNA, firefly luciferase, FLuc.
Background: In qHTS, concentration-response curves come from the screen itself.
Regarding `O=C1CC(c2ccccc2)Oc2cc(O)ccc21` (stereo not drawn), the activity change, positive = activation is inactive: -48.5%. With `O=c1ccc2ccc(OCc3ccccc3)cc2o1`, the activity change, positive = activation is inactive: -55%. To `Cc1cc(=O)oc2cc(OCc3ccccc3)ccc12` belongs inactive: -70.4%.
